Measured values from article PMC11231340, “Werner helicase interacting protein 1 contributes to G-quadruplex processing in human cells”.

How the values were obtained:
[1] = molecular target: T1, GST-WRNIP1 (Homo sapiens) (UniProt Q96S55); assay: competitive EMSA; details: EMSA: 50 nM DNA, 50 mM Tris-HCl pH 7.5, 150 mM KCl, 15 min 25 C, 6% native gel, DNA folded in 25 mM Tris-HCl pH 7.5, 50 mM KCl, recombinant protein, label: 5' FITC (anisotropy)
T1 sequence (looked up, limits assumed): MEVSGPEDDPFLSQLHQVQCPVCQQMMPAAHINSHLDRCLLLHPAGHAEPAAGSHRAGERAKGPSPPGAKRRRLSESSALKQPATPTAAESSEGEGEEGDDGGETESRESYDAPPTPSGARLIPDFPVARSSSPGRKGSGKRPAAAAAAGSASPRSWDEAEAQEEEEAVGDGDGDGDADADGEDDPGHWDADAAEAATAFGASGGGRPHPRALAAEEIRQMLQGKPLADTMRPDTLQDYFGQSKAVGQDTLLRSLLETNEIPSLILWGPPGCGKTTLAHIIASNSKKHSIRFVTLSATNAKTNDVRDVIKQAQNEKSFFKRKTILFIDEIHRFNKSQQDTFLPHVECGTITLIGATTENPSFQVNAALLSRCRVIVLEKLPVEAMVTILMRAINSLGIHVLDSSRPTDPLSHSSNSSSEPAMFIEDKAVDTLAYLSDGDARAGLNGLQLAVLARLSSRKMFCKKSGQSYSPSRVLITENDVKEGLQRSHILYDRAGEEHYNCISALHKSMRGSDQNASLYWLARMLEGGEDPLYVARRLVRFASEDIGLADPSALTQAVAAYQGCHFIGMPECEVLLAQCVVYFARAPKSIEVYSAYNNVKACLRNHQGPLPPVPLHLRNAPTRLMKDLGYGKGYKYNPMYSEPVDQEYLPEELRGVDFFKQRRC

[2] = molecular target: T1, GST-WRNIP1 (Homo sapiens); assay: fluorescence anisotropy; details: Anisotropy: 10 nM DNA, 50 mM Tris-HCl pH 7.5, 90 mM KCl, 5 mM EDTA, with or without 1 mM ATP and 1.25 mM MgCl2, 25 C, recombinant protein
[3] = label: 5' FITC (anisotropy), 5' Cy3 (EMSA) on strand 1
[4] = label: 5' FITC (anisotropy), 5' Cy3 (EMSA), single-stranded DNA

AAGCCTTATCTGTAAGTGTATGTCAATGCGTCTGCGGCTGGCTCGAGGC / TTTGCCTCGAGCCAGCCGCAGACG [CEB control partial duplex]
binding result ([1]; with FITC CEB G4 partial duplex, 5' Cy3 (EMSA) on strand 1): binds more weakly | Kd [2, 3]: > 5 µM

AAGCCTTATCTGTAAGTGTATGTCAATGCGTCTGCGGCTGGCTCGAGGC [CEB cont. ss]
binding result ([1]; with FITC CEB G4 ss, 5' Cy3 (EMSA), single-stranded DNA): binds more weakly | Kd [2, 4]: > 5 µM

GTGAGATGTTGACCATGGGTGCGTCTGCGGCTGGCTCGAGGC / TTTGCCTCGAGCCAGCCGCAGACG [MYC control partial duplex]
binding result ([1]; with FITC MYC G4 partial duplex, 5' Cy3 (EMSA) on strand 1): binds more weakly | Kd [2, 3]: > 5 µM

GTGAGATGTTGACCATGGGTGCGTCTGCGGCTGGCTCGAGGC [MYC cont. ss]
binding result ([1]; with FITC MYC G4 ss, 5' Cy3 (EMSA), single-stranded DNA): binds more weakly | Kd ([2]; 1 mM ATP, label: 5' FITC (anisotropy), 5' Cy3 (EMSA), single-stranded DNA): > 3 µM | Kd [2, 4]: > 5 µM | Kd ([2]; no ATP (ATP comparison series), label: 5' FITC (anisotropy), 5' Cy3 (EMSA), single-stranded DNA): > 3 µM

TGAGTGTGAGTGGTGTGAGAGCGGCGGCGGCTGGCGCGAGGC [GC-rich control]
Kd ([2]; label: 5' FITC, single-stranded DNA): > 5 µM

The exact form of at least one protein or probe is not confirmed. For some assays here: The comparison behind a weaker result is the experiment's own reference, which may not be listed here. Tags and fusion partners may be left off the protein sequences shown.
